Source: patent US7038049B2, “Haloanilino quinazolines and therapeutic use thereof” (Parker Hughes Institute, priority 1999, dated 2006)
For at least one compound, name, drawing or mass did not settle the structure.

What was measured:
[1] = system: U373 human glioblastoma cells; assay: U373 glioblastoma xenograft in SCID mice; assay type: in vivo, CB.17 SCID mice; conditions: 10 mg/kg/day×5 days/week, four weeks, vs controls, FIG. 10B
NALM-6 cells = assay: TUNEL apoptosis assay, NALM-6; assay type: cell-based, human; conditions: 24 hours incubation, FIG. 3
BT-20 cells = assay: TUNEL apoptosis assay, BT-20; assay type: cell-based, human; conditions: 24 hours incubation, FIG. 3
[2] = system: MDA-MB-231 human breast cancer cells; assay: MDA-MB-231 breast cancer xenograft in SCID mice; assay type: in vivo, CB.17 SCID mice; conditions: 10 mg/kg/day×5 days/week, four weeks, vs controls, FIG. 10A
U87 glioblastoma cells = assay: Intracranial U87 glioblastoma model in nude mice; assay type: in vivo; conditions: 20 mg/kg/day×10 days, vs vehicle, FIG. 10C
[3] = system: actin stress fibers and microtubules; assay: Actin stress fiber and microtubule depolymerization (FIG. 8); assay type: cell-based; conditions: FIGS. 8A–8D
glioblastoma cells = assay: Actin stress fiber formation in glioblastoma cells (FIG. 9); assay type: cell-based; conditions: FIGS. 9A–9H

| SMILES | Growth of brain tumors [1] | Induction of apoptosis (TUNEL) (NALM-6 cells) | Induction of apoptosis (TUNEL) (BT-20 cells) | Growth of breast cancer cell tumors [2] | Survival of mice with intracranial tumors (U87 glioblastoma cells) | Depolymerization of actin stress fibers and microtubules [3] | Inhibition of actin stress fiber formation (glioblastoma cells) |
| --- | --- | --- | --- | --- | --- | --- | --- |
| COc1cc2ncnc(Nc3ccc(C(c4cccc(N)c4)(C(F)(F)F)C(F)(F)F)cc3)c2cc1OC [HI-P353] | inhibited the growth of brain tumors | Apoptosis was induced | Apoptosis was induced | inhibited the growth of breast cancer cell tumors | prolonged survival | depolymerizaton of actin stress fibers and microtubules |  |
| COc1cc2ncnc(Nc3ccc(O)c(Br)c3)c2cc1OC [HI-P154, 4-(3′-Bromo-4′-hydroxylphenyl)-amino-6,7-dimethoxyquinazoline] |  |  |  |  |  |  | inhibition of actin stress fiber formation |
| COc1cc2ncnc(Nc3cccc(OC(F)(F)F)c3)c2cc1OC [HI-P364, 4-(3′-Trifluoromethoxylphenyl)-amino-6,7-dimethoxyquinazoline] | inhibited the growth of brain tumors |  |  | inhibited the growth of breast cancer cell tumors | prolonged survival |  |  |
